The target in experiment [1] is Purified His-tagged SCARB2 (UniProt Q14108). The experiment in a line: SPR; BIAcore T200; SCARB2 protein immobilised on a CM5 chip; SCARB2-MYC interaction with or without PMB; both purified.
The target is the same in experiment [2]. Description: co-IP; in vitro: 5 ug of each purified protein mixed in 100 ul of 1% NP-40, 120 mM NaCl, 40 mM tris-HCl pH 7.4, 1.5 mM sodium orthovanadate, 50 mM sodium fluoride, 10 mM sodium pyrophosphate, protease inhibitors, 6 h at 4 °C, then immunoprecipitation; both purified.

Chains of the proteins cited; added tags and fusions are not shown. Lines headed by an entry give the natural chain unless they say otherwise; changes in a name come on top.
UniProt Q14108: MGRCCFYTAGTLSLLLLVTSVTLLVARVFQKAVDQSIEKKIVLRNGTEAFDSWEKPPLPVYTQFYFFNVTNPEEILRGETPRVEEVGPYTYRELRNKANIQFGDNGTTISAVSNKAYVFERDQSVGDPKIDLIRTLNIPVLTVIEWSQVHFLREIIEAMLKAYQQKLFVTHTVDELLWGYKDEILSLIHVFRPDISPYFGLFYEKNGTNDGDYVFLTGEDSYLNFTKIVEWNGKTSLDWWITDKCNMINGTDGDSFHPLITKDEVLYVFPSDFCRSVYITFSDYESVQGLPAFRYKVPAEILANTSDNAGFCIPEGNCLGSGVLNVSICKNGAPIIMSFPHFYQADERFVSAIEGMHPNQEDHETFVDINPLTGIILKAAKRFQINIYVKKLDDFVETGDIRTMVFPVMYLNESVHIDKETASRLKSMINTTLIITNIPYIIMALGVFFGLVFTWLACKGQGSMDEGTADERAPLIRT
UniProt P01106: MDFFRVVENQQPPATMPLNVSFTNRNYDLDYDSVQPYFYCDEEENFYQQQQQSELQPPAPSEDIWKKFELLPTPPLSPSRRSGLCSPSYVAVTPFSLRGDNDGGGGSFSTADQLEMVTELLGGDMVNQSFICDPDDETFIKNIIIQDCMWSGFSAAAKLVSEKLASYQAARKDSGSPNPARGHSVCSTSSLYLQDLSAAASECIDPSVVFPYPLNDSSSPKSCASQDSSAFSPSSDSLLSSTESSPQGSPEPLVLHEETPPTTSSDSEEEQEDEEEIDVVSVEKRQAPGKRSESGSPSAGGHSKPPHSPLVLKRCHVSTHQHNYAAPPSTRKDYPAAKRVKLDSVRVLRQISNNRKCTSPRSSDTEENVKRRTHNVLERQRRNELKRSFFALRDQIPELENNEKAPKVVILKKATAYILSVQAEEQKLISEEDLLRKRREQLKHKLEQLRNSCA

Results are given in words; binding and its absence hold for the method and conditions named. A result given as binding can be weak or reduced; the word gives no strength. For some assays here: In cells and extracts the contact can be indirect.

As to “Purified His-tagged MYC (from UniProt P01106 1-454)”, the binding entry in experiment [1] and in experiment [2] was “binds” each time.

Source of the values: publication PMC10517016, “SCARB2 drives hepatocellular carcinoma tumor initiating cells via enhanced MYC transcriptional activity” (Nature Communications, 2023).
